Results are given in words; binding and its absence hold for the method and conditions named. Binding seen in cells or lysates may run through a third protein. Some results given as binding are weak or reduced against the parent protein; the word gives no strength. For some assays here: Where a sequence is shown, tags or fusion partners need not be part of it.
Legend:
[1] = molecular target: T1, SP2 (suppressor of ppi1 locus 2) with a C-terminal 6x Myc tag (Arabidopsis thaliana) (UniProt Q5PP51); experiment: co-IP; SP2-6Myc transgenic seedlings (wild type as control) analyzed without protoplastation; anti-Myc resin; endogenous PsaA and PsbC detected by immunoblot
T1 sequence: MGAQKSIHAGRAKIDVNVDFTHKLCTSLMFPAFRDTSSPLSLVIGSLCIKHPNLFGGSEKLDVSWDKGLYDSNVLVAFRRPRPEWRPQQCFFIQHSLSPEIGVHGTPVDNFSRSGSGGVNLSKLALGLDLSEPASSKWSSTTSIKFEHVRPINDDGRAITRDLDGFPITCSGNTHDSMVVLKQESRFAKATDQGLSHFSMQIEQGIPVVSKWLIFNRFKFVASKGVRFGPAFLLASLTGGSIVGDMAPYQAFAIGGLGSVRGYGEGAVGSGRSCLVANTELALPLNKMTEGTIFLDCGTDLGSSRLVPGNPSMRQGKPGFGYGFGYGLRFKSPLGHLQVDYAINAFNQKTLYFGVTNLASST

The chains behind the UniProt entries cited, without tags or fusion partners. Where a name states a change or a piece, a line headed by the entry shows the natural chain unless it says otherwise.
UniProt P54609: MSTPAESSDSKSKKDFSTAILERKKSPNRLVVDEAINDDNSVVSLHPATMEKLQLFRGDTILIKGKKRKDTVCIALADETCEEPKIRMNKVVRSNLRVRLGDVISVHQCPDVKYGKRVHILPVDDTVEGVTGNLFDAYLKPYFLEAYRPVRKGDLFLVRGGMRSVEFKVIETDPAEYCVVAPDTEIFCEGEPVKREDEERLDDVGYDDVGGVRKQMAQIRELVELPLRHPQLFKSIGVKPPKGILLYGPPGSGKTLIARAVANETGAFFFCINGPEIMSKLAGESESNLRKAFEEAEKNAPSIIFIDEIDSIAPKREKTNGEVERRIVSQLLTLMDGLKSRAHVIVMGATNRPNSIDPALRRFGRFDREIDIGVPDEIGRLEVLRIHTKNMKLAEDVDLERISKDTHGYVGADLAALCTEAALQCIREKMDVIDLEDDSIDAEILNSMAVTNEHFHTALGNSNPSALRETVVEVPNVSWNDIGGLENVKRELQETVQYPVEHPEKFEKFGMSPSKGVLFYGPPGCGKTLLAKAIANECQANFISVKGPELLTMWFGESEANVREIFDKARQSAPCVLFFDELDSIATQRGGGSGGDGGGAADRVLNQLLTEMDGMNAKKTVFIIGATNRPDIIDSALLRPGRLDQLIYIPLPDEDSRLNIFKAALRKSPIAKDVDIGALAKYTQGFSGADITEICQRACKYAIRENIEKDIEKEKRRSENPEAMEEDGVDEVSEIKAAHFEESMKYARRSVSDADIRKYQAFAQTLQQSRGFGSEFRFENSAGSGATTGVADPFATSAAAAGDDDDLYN
UniProt P56766: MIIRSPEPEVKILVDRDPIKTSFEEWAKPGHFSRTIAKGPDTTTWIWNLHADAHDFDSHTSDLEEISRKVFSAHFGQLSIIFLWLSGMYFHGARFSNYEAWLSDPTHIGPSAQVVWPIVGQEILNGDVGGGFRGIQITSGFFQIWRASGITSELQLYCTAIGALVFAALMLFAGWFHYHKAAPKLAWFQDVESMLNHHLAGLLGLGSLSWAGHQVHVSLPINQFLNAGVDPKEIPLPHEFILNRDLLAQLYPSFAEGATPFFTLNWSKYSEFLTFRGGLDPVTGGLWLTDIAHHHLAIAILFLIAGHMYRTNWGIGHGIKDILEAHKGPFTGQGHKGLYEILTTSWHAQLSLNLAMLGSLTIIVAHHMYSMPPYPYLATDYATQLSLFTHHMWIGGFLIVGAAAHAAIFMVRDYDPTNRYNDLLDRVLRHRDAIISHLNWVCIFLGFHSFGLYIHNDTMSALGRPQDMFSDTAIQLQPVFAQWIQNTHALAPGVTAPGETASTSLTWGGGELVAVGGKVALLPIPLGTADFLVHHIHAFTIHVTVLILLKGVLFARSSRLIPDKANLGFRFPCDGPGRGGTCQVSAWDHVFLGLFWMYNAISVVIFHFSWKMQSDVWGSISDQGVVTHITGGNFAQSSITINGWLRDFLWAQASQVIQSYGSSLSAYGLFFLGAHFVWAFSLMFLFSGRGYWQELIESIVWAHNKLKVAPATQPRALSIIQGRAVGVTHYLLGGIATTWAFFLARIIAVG

[2] = molecular target: CDC48-Trap-HA (AtCDC48A E581Q, CDC48 mutant with stabilized substrate binding) (Arabidopsis thaliana) (UniProt P54609); experiment: co-IP; wild-type Arabidopsis protoplasts transfected with CDC48-Trap-HA (YFP-HA as control); anti-HA resin; IP buffer 25 mM tris-HCl pH 7.5, 150 mM NaCl, 1 mM EDTA, 1% Triton X-100; 4°C; endogenous PsaA and PsbC detected by immunoblot

Question: Which results are given for “PsaA (chloroplast-encoded photosystem I subunit) (from UniProt P56766 1-750)”?
Answer: binding [1]: binds; binding [2]: binds

Source: paper PMC9668298
